Experimental data: US11169443B2, “Gap filling composition and pattern forming method using low molecular weight compound” (AZ Electronic Materials (Luxembourg) S.a.r.l., priority 2016, dated 2021)

Tests used:
[1] = Evaluation of application property (coatability); set-up: key: A: uniform coating was formed; B: coating was formed but contained plaque; C: coating was not formed; conditions: for coatability after dissolution into IPA: 20% in IPA; for coatability after dissolution into IPA / coatability after dissolution into PGME / coatability after dissolution into water: 1000 rpm; for coatability after dissolution into IPA:water = 7:3: 20% in IPA:water = 7:3, 1000 rpm; for coatability after dissolution into PGME: 20% in PGME; for coatability after dissolution into water: 20% in water
[2] = Evaluation of residue (film thickness after application and after bake)
[3] = Pattern collapse rate, removal of composition by reduced pressure
[4] = Evaluation of pattern collapse rate (composition removed by heating); conditions: heated at 250° C. for 180 seconds, relative to water
[5] = 20% in IPA:water = 7:3, after application

| SMILES | coatability after dissolution into IPA [1] | coatability after dissolution into IPA:water = 7:3 [1] | coatability after dissolution into PGME [1] | coatability after dissolution into water [1] | post-bake thickness of residual film 110° C./60 s ([2]; 20% in PGME) | post-bake thickness of residual film 130° C./60 s ([2]; 20% in PGME) | film thickness ([2]; 20% in PGME, after application) | post-bake thickness of residual film 110° C./60 s ([2]; 20% in IPA) | post-bake thickness of residual film 130° C./60 s ([2]; 20% in IPA) | film thickness ([2]; 20% in IPA, after application) | post-bake thickness of residual film 110° C./60 s ([2]; 20% in IPA:water = 7:3) | post-bake thickness of residual film 130° C./60 s ([2]; 20% in IPA:water = 7:3) | film thickness [2, 5] | pattern collapse rate ([4]; 20% in IPA:water = 7:3) | pattern collapse rate ([4]; 20% in IPA) | other results |
| --- | --- | --- | --- | --- | --- | --- | --- | --- | --- | --- | --- | --- | --- | --- | --- | --- |
| OCCCCC(O)CO (stereo not shown) [1,2,6-hexanetriol] | B | A | A | C | 0.3 μm | 0 μm | 1.2 μm |  |  |  |  |  |  |  |  | pattern collapse rate ([3]; 22% in PGME, reduced pressure 3.5 kPa/306 s): 0% |
| CCC(O)CO (stereo not shown) [1,2-butanediol] | A | A | A | C | 0 μm | 0 μm | 1.2 μm | 0 μm | 0 μm | 1.2 μm | 0 μm | 0 μm | 1.2 μm | 4% | 7% |  |
| OC1CCCCC1O (stereo not shown) [1,2-cyclohexanediol] | B | A | B | C | 0 μm | 0 μm | 1.2 μm |  |  |  |  |  |  |  |  | pattern collapse rate ([3]; 22% in PGMEA, reduced pressure 1.6 kPa/303 s): 0% |
| CCCCC(O)CO (stereo not shown) [1,2-hexanediol] | A | A | A | C | 0 μm | 0 μm | 1.2 μm | 0 μm | 0 μm | 1.2 μm | 0 μm | 0 μm | 1.2 μm | 5% | 4% |  |
| CCCC(O)CO (stereo not shown) [1,2-pentanediol] | A | A | A | C | 0 μm | 0 μm | 1.2 μm | 0 μm | 0 μm | 1.2 μm | 0 μm | 0 μm | 1.2 μm | 6% | 4% |  |
| OC1CC(O)CC(O)C1 (stereo not shown) [1,3,5-cyclohexanetriol] | B | A | A | C | 0.5 μm | 0 μm | 1.2 μm |  |  |  |  |  |  |  |  | pattern collapse rate ([3]; 21% in IPA, reduced pressure 2.8 kPa/307 s): 0% |
| CC(O)CCO (stereo not shown) [1,3-butanediol] | A | A | A | C | 0 μm | 0 μm | 1.2 μm | 0 μm | 0 μm | 1.2 μm | 0 μm | 0 μm | 1.2 μm | 5% | 5% | coatability ([1]; 20% in IPA:water = 0:1): C; coatability ([1]; 20% in IPA:water = 1:0): A; coatability ([1]; 20% in IPA:water = 1:1): C; coatability ([1]; 20% in IPA:water = 1:3): C; coatability ([1]; 20% in IPA:water = 3:1): A; film thickness ([2]; 20% in IPA:water = 1:0): 1.3 μm; film thickness ([2]; 20% in IPA:water = 3:1): 1.4 μm |
| OC1CCCC(O)C1 (stereo not shown) [1,3-cyclohexanediol] | B | A | B | C | 0 μm | 0 μm | 1.3 μm |  |  |  |  |  |  |  |  | pattern collapse rate ([3]; 24% in IPA, reduced pressure 0.8 kPa/304 s): 0% |
| OC1CCC(O)C1 (stereo not shown) [1,3-cyclopentanediol] | B | A | B | C | 0 μm | 0 μm | 1.2 μm |  |  |  |  |  |  |  |  |  |
